Assay results reported in patent publication US20190083455A1, “METHODS AND COMPOSITIONS FOR THE MODULATION OF BETA-ENDORPHIN LEVELS” (The General Hospital Corporation, priority 2014, published 2019).
For at least one compound, name, drawing or mass did not settle the structure.

Legend:
[1] = system: POMC promoter in human melanoma cells; assay: Luciferase construct driven by POMC promoter; format: cell-based; conditions: human melanoma cells exposed for 24 hrs; construct lacks exon1; data not shown
[2] = system: B16, B16-F0, Melan-a and PAM212 mouse cell lines; assay: RT-qPCR of POMC and Mitf after forskolin treatment, mouse cell lines; format: cell-based; conditions: 20 μM forskolin; melanocyte and keratinocyte derived mouse cells
Method: UACC62 and UAC257 human melanoma cells were obtained from NCI and grown in RPMI (Cellgro) medium supplemented with 10% fetal bovine serum and penicillin/streptomycin/L-glutamine. Malme-3M human melanoma and B16 mouse melanoma cell line were obtained from ATCC and grown in DEMEM (Cellgro) medium supplemented with 5% fetal bovine serum and 1% penicillin/streptomycin/L-glutamine. Melan-a cells were kindly provided by Dorothy C. Bennett and were grown in Ham's F10 medium supplemented with 10% fetal bovine serum and 1% penicillin/streptomycin/L-glutamine. The mouse keratinocyte cell line PAM212 was generously shared by Dr. Paolo Dotto (Massachusetts General Hospital and Harvard Medical School, Boston, Mass.) and grown in 10% fetal bovine serum and 1% penicillin/streptomycin/L-glutamine. Cells were grown to 70% confluence prior to use in experiments in humidified incubators supplemented with 5% CO2.
After forskolin (Sigma) treatment at 20 μM final concentration at the stated times, mRNA was isolated using RNeasy® plus minikits from Qiagen, and was subjected to KAPA SYBR® FAST One-Step qRT-PCR (Kapa Biosystems). For each reaction, 100 ng of RNA was subjected to the following steps: reverse transcription for 30 min at 48° C., inactivation for 10 min at 95° C., expansion for 40 cycles (15 sec at 95° C. and 30 sec at 60° C.). The results are the average of three independent experiments. […]

β-endorphin = assay: Plasma β-endorphin after topical forskolin treatment; format: in vivo, mice
Method: Blood samples from mice were collected in EDTA microvotte tubes containing 0.6 UTI aprotinin (Sigma). Samples were spun at 3500 rpm at 4° C. for 20 min and the plasma (top layer) was isolated and transferred to a new tube and stored at −80° C. until β-endorphin measurement was performed. β-Endorphin was measured using a radioimmunoassay from Phoenix Pharmaceuticals, following the manufacturer's instructions.
All experiments were done in C57BL/6J (Jackson laboratory) mice. C57BL/6J Mc1r^e/e (described at Robbins L S, et al., Pigmentation phenotypes of variant extension locus alleles result from point mutations that alter MSH receptor function. Cell. 1993 Mar. 26; 72(6) 72, 827-834.) were crossed with K14-Scf transgenic mice as previously reported (Kunisada T, et. al., Development. 1998 August; 125(15):2915-23.). Mice were 8 weeks old at the start of each experiment.
A crude extract of Coleus forskohlii root preparation was used as a working source of forskolin (ATZ Natural, Edgewater, N.J.) for the topical treatment of this drug (Lin C B, et. al., Modulation of microphthalmia-associated transcription factor gene expression alters skin pigmentation. J Invest Dermatol 119, 1330-1340 (2002)). The C. forskohlii extract-derived topical preparation was made by mixing the dry root powder with 70% ethanol and 30% Propyleenglycol solution for 1 hour at room temperature on a stir plate with constant agitation. Next, the solution was centrifuged (10 min, room temperature, 2,000×g) and the soluble portion (supernatant) was collected and filtered (0.45μ cellulose acetate filter). The C. forskohlii extract was stored at room temperature. Assay of content by the manufacturer (as well as independent analysis) confirmed that forskolin accounted for 20% (w/w) of the root extract in powder form. Female mice were treated with 80 μL of 20% forskolin or vehicle control daily and Male mice were pre-treated with vehicle for two weeks and then treated with forskolin (80 μL, 20%-Forskolin extract) or vehicle control daily. […] Samples were processed and β-endorphin was measured.

K14-SCF/Mc1r^e/e mice = assay: Skin pigmentation after topical forskolin treatment; format: in vivo; conditions: topical 80 μL 20%-Forskolin extract daily, after a month of treatment

## C=C[C@@]1(C)CC(=O)[C@]2(O)[C@@]3(C)[C@@H](O)CCC(C)(C)[C@@H]3[C@H](O)[C@H](OC(C)=O)[C@@]2(C)O1 [forskolin]
[1]
  POMC promoter luciferase upregulation: did not observe any upregulation
[2]
  Pomc mRNA expression: robust increase in Pomc mRNA expression
β-endorphin; topical 80 μL 20%-Forskolin extract daily, K14-e/e and e/e female mice
  β-endorphin levels (plasma): increase in β-endorphin levels upon treatment in both K14-e/e as well as e/e female mice
β-endorphin; topical 80 μL 20%-forskolin extract daily, male mice, vehicle pre-treated
  β-endorphin levels (plasma): upregulation of β-endorphin
β-endorphin; topical forskolin, male and female mice
  duration of the increase in circulating β-endorphin: sustained during the treatment and stopped shortly after the last forskolin application
K14-SCF/Mc1r^e/e mice
  pigmentation: profound pigmentation
